Test results taken from patent US20030199022.
For some of these results: No signal at the amounts used counts as a negative. For some of these results: At least one result comes from cells or an extract, where the contact may be indirect. For some of these results: Weaker means in comparison with the reference protein, sequence or condition of that experiment. For some of these results: Construct, isoform or probe ends are uncertain for at least one entry.

By UniProt entry, the sequences of proteins in these tests, tags left out.
UniProt P03372, whole entry G400V: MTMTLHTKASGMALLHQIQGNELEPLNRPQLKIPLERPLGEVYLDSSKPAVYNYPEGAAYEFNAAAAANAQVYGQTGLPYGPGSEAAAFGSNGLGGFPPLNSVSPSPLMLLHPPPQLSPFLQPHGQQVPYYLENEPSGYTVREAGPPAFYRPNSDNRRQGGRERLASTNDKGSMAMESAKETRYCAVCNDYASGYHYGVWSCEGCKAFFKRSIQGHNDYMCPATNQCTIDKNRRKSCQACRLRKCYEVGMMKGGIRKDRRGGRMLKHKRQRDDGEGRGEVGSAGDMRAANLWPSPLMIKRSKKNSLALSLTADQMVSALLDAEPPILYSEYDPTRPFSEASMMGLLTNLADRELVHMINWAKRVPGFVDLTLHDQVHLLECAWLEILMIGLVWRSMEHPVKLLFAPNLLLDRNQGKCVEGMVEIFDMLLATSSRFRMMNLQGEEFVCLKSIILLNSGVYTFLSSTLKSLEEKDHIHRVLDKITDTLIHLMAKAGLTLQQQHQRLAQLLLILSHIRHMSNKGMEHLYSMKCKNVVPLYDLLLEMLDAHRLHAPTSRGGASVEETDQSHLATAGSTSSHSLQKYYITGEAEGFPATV
UniProt P03372, whole entry E203W/G204S/A207G/Q214K/H216V/N217P/D218T/G400V: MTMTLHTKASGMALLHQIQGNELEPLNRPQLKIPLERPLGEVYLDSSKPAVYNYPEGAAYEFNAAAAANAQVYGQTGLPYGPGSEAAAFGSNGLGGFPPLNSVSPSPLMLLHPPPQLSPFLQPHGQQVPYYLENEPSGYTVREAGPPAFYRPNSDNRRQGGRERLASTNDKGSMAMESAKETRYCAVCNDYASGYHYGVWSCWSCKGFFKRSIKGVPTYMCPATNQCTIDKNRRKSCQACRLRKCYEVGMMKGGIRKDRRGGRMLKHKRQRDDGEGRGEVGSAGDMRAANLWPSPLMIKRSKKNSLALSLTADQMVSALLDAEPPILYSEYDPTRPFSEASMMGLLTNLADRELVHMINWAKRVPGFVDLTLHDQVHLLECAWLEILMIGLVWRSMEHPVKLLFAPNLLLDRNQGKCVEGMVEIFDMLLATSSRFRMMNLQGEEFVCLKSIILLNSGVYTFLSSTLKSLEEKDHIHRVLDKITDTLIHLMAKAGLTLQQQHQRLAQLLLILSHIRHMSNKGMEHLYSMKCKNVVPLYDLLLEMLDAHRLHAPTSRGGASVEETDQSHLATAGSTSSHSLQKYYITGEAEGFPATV
UniProt P03372, whole entry E203W/G204S/Q214A/H216G/G400V: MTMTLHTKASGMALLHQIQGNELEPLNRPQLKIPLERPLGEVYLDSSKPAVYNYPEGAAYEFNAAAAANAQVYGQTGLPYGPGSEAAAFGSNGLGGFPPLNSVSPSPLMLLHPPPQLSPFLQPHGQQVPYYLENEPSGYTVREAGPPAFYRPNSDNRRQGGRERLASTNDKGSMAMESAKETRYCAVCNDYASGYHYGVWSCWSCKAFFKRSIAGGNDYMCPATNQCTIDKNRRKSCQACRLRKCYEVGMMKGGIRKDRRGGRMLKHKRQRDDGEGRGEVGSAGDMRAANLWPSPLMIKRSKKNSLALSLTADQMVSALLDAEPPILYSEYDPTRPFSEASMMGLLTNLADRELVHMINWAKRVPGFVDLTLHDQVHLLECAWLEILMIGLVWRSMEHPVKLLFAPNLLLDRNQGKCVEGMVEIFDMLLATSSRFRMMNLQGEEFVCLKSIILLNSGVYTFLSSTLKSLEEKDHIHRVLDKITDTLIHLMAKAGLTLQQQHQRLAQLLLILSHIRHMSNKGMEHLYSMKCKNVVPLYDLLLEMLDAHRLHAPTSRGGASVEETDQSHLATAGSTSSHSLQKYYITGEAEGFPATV
UniProt P03372, whole entry E203W/Q214A/H216G/G400V: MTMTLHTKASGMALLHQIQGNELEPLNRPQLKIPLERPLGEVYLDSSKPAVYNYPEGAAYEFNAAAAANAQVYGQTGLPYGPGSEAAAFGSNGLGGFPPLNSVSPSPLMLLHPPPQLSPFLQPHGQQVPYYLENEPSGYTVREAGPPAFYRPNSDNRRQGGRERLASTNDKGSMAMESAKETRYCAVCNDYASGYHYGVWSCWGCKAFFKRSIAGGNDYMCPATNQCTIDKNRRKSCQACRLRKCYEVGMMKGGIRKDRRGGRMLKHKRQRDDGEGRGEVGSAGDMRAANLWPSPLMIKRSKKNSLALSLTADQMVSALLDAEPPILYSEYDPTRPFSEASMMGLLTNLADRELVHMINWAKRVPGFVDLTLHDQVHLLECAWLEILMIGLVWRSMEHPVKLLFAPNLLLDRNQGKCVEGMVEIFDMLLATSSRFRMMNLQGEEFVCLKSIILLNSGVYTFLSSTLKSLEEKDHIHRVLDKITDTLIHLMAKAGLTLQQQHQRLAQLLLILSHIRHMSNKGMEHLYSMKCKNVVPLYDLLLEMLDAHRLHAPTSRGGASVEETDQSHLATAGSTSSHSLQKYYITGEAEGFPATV
UniProt P03372, whole entry E203W/Q214A/G215R/G400V: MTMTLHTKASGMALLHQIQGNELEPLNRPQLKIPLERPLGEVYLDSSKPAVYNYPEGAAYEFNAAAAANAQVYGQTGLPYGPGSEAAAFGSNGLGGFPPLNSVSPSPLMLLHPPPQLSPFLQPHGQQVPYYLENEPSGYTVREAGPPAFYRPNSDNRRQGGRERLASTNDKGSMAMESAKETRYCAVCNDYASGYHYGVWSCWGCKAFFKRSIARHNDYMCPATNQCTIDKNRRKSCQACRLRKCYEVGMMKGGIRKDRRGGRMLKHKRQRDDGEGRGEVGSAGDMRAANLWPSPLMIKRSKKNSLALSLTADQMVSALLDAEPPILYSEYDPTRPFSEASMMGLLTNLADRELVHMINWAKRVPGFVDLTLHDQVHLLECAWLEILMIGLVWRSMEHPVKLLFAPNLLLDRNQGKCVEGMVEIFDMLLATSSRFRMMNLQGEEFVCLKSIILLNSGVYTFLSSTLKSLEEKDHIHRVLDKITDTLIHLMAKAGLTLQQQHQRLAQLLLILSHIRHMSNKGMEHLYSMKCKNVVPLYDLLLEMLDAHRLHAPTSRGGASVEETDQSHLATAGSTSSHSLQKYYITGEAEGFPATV
UniProt P03372, whole entry G215R/N217P/D218R/G400V: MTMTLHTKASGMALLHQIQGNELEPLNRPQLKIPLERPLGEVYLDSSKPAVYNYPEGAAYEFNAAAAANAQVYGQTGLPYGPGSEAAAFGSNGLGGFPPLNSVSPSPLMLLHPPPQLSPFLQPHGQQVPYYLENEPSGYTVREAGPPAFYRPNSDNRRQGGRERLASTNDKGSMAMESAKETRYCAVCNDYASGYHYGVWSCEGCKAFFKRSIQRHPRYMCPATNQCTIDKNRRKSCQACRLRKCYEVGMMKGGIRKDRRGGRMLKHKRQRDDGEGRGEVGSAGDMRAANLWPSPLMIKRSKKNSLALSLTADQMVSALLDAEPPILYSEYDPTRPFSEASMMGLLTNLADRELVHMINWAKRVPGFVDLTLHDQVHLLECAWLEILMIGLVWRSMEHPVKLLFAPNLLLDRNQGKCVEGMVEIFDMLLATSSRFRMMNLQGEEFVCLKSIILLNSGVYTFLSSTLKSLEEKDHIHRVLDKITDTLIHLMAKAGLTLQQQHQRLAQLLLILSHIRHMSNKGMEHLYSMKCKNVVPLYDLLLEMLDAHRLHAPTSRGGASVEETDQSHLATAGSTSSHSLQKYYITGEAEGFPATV
UniProt P03372, whole entry E203W/Q214V/G215R/H216P/N217T/G400V: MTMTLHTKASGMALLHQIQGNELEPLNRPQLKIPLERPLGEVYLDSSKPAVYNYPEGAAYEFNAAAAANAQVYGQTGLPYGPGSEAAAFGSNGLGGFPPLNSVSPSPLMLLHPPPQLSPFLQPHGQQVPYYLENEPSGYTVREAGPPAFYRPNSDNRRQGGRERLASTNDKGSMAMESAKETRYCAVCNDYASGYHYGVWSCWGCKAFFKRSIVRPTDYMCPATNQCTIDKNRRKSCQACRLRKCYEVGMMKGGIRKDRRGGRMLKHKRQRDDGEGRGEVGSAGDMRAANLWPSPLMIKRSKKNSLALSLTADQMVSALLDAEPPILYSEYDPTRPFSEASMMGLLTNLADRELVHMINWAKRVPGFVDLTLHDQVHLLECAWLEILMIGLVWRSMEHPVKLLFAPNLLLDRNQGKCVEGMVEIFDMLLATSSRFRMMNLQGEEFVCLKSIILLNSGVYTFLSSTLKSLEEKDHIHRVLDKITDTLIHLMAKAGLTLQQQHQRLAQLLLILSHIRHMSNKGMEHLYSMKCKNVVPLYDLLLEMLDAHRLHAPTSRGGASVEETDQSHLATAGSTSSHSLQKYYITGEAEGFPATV
UniProt P03372, whole entry E203W/Q214A/G215R/H216G/G400V: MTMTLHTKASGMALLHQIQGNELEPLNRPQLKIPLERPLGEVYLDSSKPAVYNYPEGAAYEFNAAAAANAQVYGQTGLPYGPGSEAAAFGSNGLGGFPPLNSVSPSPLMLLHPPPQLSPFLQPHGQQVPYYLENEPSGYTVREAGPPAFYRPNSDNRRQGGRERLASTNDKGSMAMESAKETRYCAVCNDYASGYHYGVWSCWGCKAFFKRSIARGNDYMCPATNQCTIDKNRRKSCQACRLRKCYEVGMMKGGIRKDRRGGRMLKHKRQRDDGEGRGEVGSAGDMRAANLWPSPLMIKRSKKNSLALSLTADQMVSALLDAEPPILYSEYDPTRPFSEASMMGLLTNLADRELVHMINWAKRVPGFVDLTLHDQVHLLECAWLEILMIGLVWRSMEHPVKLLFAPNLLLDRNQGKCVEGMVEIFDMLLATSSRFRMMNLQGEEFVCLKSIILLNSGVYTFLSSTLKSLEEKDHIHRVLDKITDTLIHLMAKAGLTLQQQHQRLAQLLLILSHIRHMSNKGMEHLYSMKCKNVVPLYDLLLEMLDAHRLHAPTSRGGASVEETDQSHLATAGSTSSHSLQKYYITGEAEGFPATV
UniProt P03372, whole entry G204S/Q214G/D218Y/G400V: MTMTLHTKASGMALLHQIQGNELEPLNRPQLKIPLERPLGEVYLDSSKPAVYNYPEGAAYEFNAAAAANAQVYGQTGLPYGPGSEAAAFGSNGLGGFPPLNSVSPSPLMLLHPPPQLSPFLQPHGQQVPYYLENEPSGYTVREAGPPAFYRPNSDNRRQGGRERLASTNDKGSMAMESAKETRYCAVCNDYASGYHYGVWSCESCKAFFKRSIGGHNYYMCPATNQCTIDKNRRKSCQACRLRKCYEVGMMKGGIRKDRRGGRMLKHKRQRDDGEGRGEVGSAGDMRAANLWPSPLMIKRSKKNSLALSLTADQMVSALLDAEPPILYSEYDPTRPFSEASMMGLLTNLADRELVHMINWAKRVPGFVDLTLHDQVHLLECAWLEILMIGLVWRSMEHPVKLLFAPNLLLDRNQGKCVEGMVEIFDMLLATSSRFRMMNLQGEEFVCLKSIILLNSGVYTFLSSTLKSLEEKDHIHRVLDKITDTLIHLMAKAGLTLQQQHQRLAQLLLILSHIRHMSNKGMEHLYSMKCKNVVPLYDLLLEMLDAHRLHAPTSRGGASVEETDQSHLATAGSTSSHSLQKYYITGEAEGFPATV
UniProt P03372, whole entry E203W/G204S/A207G/I213K/G400V: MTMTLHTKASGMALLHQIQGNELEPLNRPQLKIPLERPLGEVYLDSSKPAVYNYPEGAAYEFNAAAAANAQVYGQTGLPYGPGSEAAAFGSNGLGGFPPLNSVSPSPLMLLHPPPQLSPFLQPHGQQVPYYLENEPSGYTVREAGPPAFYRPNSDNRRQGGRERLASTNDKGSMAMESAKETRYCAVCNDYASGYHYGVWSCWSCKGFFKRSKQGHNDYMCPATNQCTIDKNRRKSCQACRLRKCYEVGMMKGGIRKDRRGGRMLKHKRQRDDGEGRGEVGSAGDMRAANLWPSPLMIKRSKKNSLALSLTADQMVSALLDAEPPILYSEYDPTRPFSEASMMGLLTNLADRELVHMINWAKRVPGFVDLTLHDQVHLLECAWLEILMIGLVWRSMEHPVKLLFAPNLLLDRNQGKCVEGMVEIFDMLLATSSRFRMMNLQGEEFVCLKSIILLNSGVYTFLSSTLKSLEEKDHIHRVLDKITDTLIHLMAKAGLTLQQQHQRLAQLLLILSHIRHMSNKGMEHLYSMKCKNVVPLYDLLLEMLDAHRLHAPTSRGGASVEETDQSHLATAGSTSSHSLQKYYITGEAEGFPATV
UniProt P03372, whole entry E203W/Q214N/G215R/D218S/G400V: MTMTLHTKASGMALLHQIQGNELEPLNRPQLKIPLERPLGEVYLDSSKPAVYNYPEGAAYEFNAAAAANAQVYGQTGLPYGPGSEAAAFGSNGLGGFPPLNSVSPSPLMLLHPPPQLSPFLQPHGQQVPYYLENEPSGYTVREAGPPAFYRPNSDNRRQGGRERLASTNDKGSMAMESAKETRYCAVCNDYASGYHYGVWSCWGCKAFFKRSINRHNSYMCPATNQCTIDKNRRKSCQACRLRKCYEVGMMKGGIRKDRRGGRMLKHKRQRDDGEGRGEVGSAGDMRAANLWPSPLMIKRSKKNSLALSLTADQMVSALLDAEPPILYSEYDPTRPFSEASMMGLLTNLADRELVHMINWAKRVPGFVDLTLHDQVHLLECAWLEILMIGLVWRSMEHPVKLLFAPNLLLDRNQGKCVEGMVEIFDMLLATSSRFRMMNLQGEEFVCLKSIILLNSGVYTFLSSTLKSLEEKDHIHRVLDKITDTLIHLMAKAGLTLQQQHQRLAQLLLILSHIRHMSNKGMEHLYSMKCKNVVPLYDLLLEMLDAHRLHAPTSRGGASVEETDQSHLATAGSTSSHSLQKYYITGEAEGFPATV

Key:
[1] = target: ERα wild type (in cell) (Homo sapiens) (UniProt P03372); assay: activity in cells; details: HepG2, little or no transactivation; protein in cells
[2] = target: ER57.1 E203W,G204S,A207G,Q214K,H216V,N217P,D218T (Homo sapiens) (UniProt P03372); assay: EMSA; details: little or no binding, protein in a lysate after overexpression, label: labeled
[3] = target: ERα wild type (hERα) (Homo sapiens) (UniProt P03372); assay: EMSA; details: best binder to cERE; estradiol-treated cells, 50 mM KCl, poly(dIdC); protein in a lysate after overexpression; protein details: CHO-S whole cell extract; label: labeled
[4] = target: ER2.1 E203W,G204S,Q214A,H216G (Homo sapiens) (UniProt P03372); assay: EMSA; details: little or no binding, protein in a lysate after overexpression, label: labeled
[5] = target: ER3M E203W,Q214A,H216G (Homo sapiens) (UniProt P03372); assay: EMSA; details: protein in a lysate after overexpression, label: labeled
[6] = target: ER2 E203W,Q214A,G215R (Homo sapiens) (UniProt P03372); assay: EMSA; details: protein in a lysate after overexpression, label: labeled
[7] = target: ER7.2 G215R,N217P,D218R (Homo sapiens) (UniProt P03372); assay: EMSA; details: little or no binding, protein in a lysate after overexpression, label: labeled
[8] = target: ER4.3 E203W,Q214V,G215R,H216P,N217T (Homo sapiens) (UniProt P03372); assay: EMSA; details: protein in a lysate after overexpression, label: labeled
[9] = target: ER4 E203W,Q214A,G215R,H216G (Homo sapiens) (UniProt P03372); assay: EMSA; details: protein in a lysate after overexpression, label: labeled
[10] = target: ER15.3 G204S,Q214G,D218Y (Homo sapiens) (UniProt P03372); assay: EMSA; details: little or no binding, protein in a lysate after overexpression, label: labeled
[11] = target: ER50.1 E203W,G204S,A207G,I213K (Homo sapiens) (UniProt P03372); assay: EMSA; details: little or no binding, protein in a lysate after overexpression, label: labeled
[12] = target: ER3.1 E203W,Q214N,G215R,D218S (Homo sapiens) (UniProt P03372); assay: EMSA; details: protein in a lysate after overexpression, label: labeled
[13] = target: ER6.2 Q214A,G215R,H216R,N217L (Homo sapiens) (UniProt P03372); assay: EMSA; details: protein in a lysate after overexpression, label: labeled

AAGCTTGGGCCACTGTGGCCCATCAAGATATCGAGATGGGCCACTGTGGCCCATCGACTCTAGA (double strand) [ATL2/PAL]
activity on this sequence [1]: not active

AGCTTCTCTATTAGGTCACTGTGACCTTCATCTGAAGCT (double strand) [cERE probe]
binding result [2]: no binding
binding result [3]: binds
binding result [4]: no binding
binding result ([5]; range for mutants): binds more weakly
binding result ([6]; range for mutants): binds more weakly
binding result [7]: no binding
binding result ([8]; range for mutants): binds more weakly
binding result ([9]; range for mutants): binds more weakly
binding result [10]: no binding
binding result [11]: no binding
binding result ([12]; range for mutants): binds more weakly
binding result ([13]; range for mutants): binds more weakly

AGCTTCTCTATTGGGCCACTGTGACCTTCATCTGAAGCT (double strand) [pS2 ERE probe]
binding result ([2]; variant of cERE probe): no binding
binding result ([4]; variant of cERE probe): no binding
binding result ([5]; variant of cERE probe): binds
binding result ([6]; variant of cERE probe): binds
binding result ([7]; variant of cERE probe): no binding
binding result ([8]; variant of cERE probe): binds
binding result ([9]; variant of cERE probe): binds
binding result ([10]; variant of cERE probe): no binding
binding result ([11]; variant of cERE probe): no binding
binding result ([12]; variant of cERE probe): binds
binding result ([13]; dramatic decrease versus cERE, variant of cERE probe): binds more weakly

AGCTTCTCTATTGGGCCACTGTGGCCCTCATCTGAAGCT (double strand) [pS2 PAL probe]
binding result ([13]; negligible binding, variant of pS2 ERE probe): no binding
